# No constants are given. Whether binding was seen depends on the method and setting. Binding seen in cells or lysates may run through a third protein. Some results given as binding are weak or reduced against the parent protein; the word gives no strength.
# The chains behind the UniProt entries cited, without tags or fusion partners.
# UniProt P84025: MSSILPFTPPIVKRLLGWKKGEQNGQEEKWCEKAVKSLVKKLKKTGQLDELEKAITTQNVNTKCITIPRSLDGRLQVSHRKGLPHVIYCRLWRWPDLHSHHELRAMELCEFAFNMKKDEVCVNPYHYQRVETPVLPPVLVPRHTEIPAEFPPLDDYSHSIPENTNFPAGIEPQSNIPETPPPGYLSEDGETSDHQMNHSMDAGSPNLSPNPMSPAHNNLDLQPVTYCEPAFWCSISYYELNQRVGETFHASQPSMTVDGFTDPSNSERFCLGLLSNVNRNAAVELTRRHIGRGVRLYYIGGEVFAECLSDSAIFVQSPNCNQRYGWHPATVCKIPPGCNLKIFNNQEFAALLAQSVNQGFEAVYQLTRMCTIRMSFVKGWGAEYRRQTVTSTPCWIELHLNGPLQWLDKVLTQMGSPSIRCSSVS
# B1: silence information regulator 1 (Sirt1) (protein, UniProt A0A0G2JZ79 1-741)
# chain: MADEAALALQAGGSPSAAAAMEAASQPADEPLRKRPRRDGPGLGRSPGEPSAAAAAAAAAAGCEAASAAAPAALWREAAGAAAASAEREAPATAAAGDGDNGPGLRREPRAADDFDDDEGEEEDEAAAAAAAAIGYRDNLLLADEIITNGFHSCESDDDDRASHASSSDWTPRPRIGPYTFVQQHLMIGTDPRTILKDLLPETIPPPELDDMTLWQIVINILSEPPKRKKRKDINTIEDAVKLLQECKKIIVLTGAGVSVSCGIPDFRSRDGIYARLAVDFPDLPDPQAMFDIEYFRKDPRPFFKFAKEIYPGQFQPSLCHKFIALSDKEGKLLRNYTQNIDTLEQVAGIQRIIQCHGSFATASCLICKYKVDCEAVRGDIFNQVVPRCPRCPADEPLAIMKPEIVFFGENLPEQFHRAMKYDKDEVDLLIVIGSSLKVRPVALIPSSIPHEVPQILINREPLPHLHFDVELLGDCDVIINELCHRLGGEYAKLCCNPVKLSEITEKPPRTQKELVHLSELPPTPLHISEDSSSPERTVPQDSSVIATLVDQTIKNKVDDLEVSEPKSCVEEKSQEVQTYRNVESINVENPDFKAVGSSTGDKNERTSVAETVRKCWPNRLAKEQISKRLDGNQYLFVPPNRYIFHGAEVYSDSEDDALSSSSCGSNSDSGTCQSPSLEEPLEDESEIEEFYNGLEDDADRPECAGGSGADGGDQEAVNEAIAMKQELTDVNCTPDKSEHY
# Biological target: Smad3 (rat (endogenous in Lewis rat heart tissue)) (UniProt P84025)
# Experiment: co-IP; heart tissue lysates (500 μg protein) of control, DCM, RSV-L and RSV-H rats; anti-Smad3 antibody 2 h at 4 °C, agarose A/G beads overnight at 4 °C, washed three times with PBS; Western blot with anti-Sirt1 antibody
binder,measurement,value
B1,binding,binds

# From paper PMC8793224
